Experimental data published in patent publication US10022453B2 (BAYER PHARMA AKTIENGESELLSCHAFT, priority 2013, dated 2018).
Some of these results come from one statement about several compounds together.

B1: 136.1(TPP-2194): comparative anti-TWEAKR antibody; variable domains from WO2009/020933, constant region added, "resulting in full-length IgGs" (protein)
light: DIVLTQSPASLTVSLGQRATISCRASQSVSTSSYSYMQWYQQRPGQPPKLLIKYATNLDSGVPARFSGSGSGTDFTLNIHPVEEEDAATYYCQHSWEIPYTFGGGTKLEIKRADAAPTVSIFPPSSEQLTSGGASVVCFLNNFYPKDINVKWKIDGSERQNGVLNSWTDQDSKDSTYSMSSTLTLTKDEYERHNSYTCEATHKTSTSPIVKSFNRNEC
heavy: EVKLEESGGGLVQPGGSMKLSCVASGFTFNNYWMSWVRQSPEKGLEWLAEIRLKSDNYATHYAESVKGKFTISRDDSKSRLYLQMNNLRAENTGIYYCTGGFADYFDYWGQGTTLTVSSAKTTAPSVYPLAPVCGDTTGSSVTLGCLVKGYFPEPVTLTWNSGSLSSGVHTFPAVLQSDLYTLSSSVTVTSSTWPSQSITCNVAHPASSTKVDKKIEPRGPTIKPCPPCKCPAPNLLGGPSVFIFPPKIKDVLMISLSPIVTCVVVDVSEDDPDVQISWFVNNVEVHTAQTQTHREDYNSTLRVVSALPIQHQDWMSGKEFKCKVNNKDLPAPIERTISKPKGSVRAPQVYVLPPPEEEMTKKQVTLTCMVTDFMPEDIYVEWTNNGKTELNYKNTEPVLDSDGSYFMYSKLRVEKKNWVERNSYSCSVVHEGLHNHHTTKSFSRTPG
modifications: Mus Musculus
B2: P3G5(TPP-2195): comparative anti-TWEAKR antibody; variable domains from WO2009/140177, constant region added, "resulting in full-length IgGs" (protein)
light: DIVLTQSPASLAVSLGQRATISCRANKSVSTSSYSYMHWYQQKPGQPPKLLIKYASNLESGVPARFSGSGSGTDFILNIHPVEEEDAATYYCQHSRELPFTFGSGTKLEIKRADAAPTVSIFPPSSEQLTSGGASVVCFLNNFYPKDINVKWKIDGSERQNGVLNSWTDQDSKDSTYSMSSTLTLTKDEYERHNSYTCEATHKTSTSPIVKSFNRNEC
heavy: QVQLQQSGPEVVRPGVSVKISCKGSGYTFTDYGIHWVKQSHAKSLEWIGVISTYNGYTNYNQKFKGKATMTVDKSSSTAYMELARLTSEDSAIYYCARAYYGNLYYAMDYWGQGTSVTVSSAKTTAPSVYPLAPVCGDTTGSSVTLGCLVKGYFPEPVTLTWNSGSLSSGVHTFPAVLQSDLYTLSSSVTVTSSTWPSQSITCNVAHPASSTKVDKKIEPRGPTIKPCPPCKCPAPNLLGGPSVFIFPPKIKDVLMISLSPIVTCVVVDVSEDDPDVQISWFVNNVEVHTAQTQTHREDYNSTLRVVSALPIQHQDWMSGKEFKCKVNNKDLPAPIERTISKPKGSVRAPQVYVLPPPEEEMTKKQVTLTCMVTDFMPEDIYVEWTNNGKTELNYKNTEPVLDSDGSYFMYSKLRVEKKNWVERNSYSCSVVHEGLHNHHTTKSFSRTPG
modifications: Mus Musculus

Target: T1, recombinant human TWEAKR protein (TPP-2305) (Homo sapiens, UniProt Q9NP84)
T1 construct: purchased Fitzgerald Inc 30R-AT080
Test: Binding affinities by Biacore analysis
Conditions: monovalent, read-out: KD (n M )
Experimental: Determination of Binding Affinities by Biacore Analysis:
Binding affinities of anti-TWEAKR antibodies were examined using surface plasmon resonance analysis on a Biacore T100 instrument (GE Healthcare Biacore, Inc.). The antibodies were immobilized on a CM5 sensor chip using an indirect capture reagent, anti-human IgG(Fc). […] Anti-TWEAKR antibodies were injected at a concentration of 10 μg/ml at […] for 10 sec.
Sensorgrams were generated after in-line reference cell correction, followed by subtraction of the buffer sample. The dissociation constant (KD) was calculated based on the ratio of association (kon) and dissociation (koff) constants, obtained by fitting sensorgrams using a 1:1 first order binding model.

Kd [nM]	Molecule
0.7 to 3.7	B1
0.7 to 3.7	B2
